{"source": "PubChem BioAssay AID1259308 – NCATS, 2017", "purpose": "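Candidate targets for better recombinant protein yield in mammalian cells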 (primary screen)", "cells": "human HEK293 embryonic kidney cells stably expressing firefly luciferase (HEK-CMV-Luc2-Hygro)", "knock-down reagent": "single siRNA against human genes, 0.8 pmol siRNA per well", "timing": "72 h", "measurement": "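Reporter luminescence and viable-cell signal on separate replicate plates, given as percent of non-targeting control and median/MAD z-scores, plus per-cell luciferase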", "direction": "total luciferase, z-score: higher = more reporter protein produced", "rule for the call": "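An siRNA counts as active if its total luciferase robust z-score exceeds 3; genes with two or more such siRNAs out of three were retested with fresh siRNAs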", "calls": "active = raised luciferase; inactive = no rise", "note": "The whole screen tested about 59,000 reagents; below is a part drawn at random. Of all reagents, about 1,510 (2.6%) are marked active. 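Calls use total luciferase alone and ignore viability, so some active siRNAs may act by altering cell number.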 Not all columns of the deposit are shown. Reagent sequences are not shown."}
{"Gene": "WDR88 (WD repeat domain 88)", "PubChem SID": "SID160756432", "total luciferase, z-score": 1.29, "Call": "inactive"}
{"Gene": "WDR88 (WD repeat domain 88)", "PubChem SID": "SID160756433", "total luciferase, z-score": -0.646, "Call": "inactive"}
{"Gene": "WDR88 (WD repeat domain 88)", "PubChem SID": "SID160756434", "total luciferase, z-score": 0.371, "Call": "inactive"}
{"Gene": "MAP4K2 (mitogen-activated protein kinase kinase kinase kinase 2)", "PubChem SID": "SID160715548", "total luciferase, z-score": 0.456, "Call": "inactive"}
{"Gene": "MAP4K2 (mitogen-activated protein kinase kinase kinase kinase 2)", "PubChem SID": "SID160715549", "total luciferase, z-score": -0.367, "Call": "inactive"}
{"Gene": "MAP4K2 (mitogen-activated protein kinase kinase kinase kinase 2)", "PubChem SID": "SID160715550", "total luciferase, z-score": 2.9, "Call": "inactive"}
{"Gene": "PRDM15 (PR/SET domain 15)", "PubChem SID": "SID160747360", "total luciferase, z-score": 1.17, "Call": "inactive"}
{"Gene": "PRDM15 (PR/SET domain 15)", "PubChem SID": "SID160747362", "total luciferase, z-score": 3.39, "Call": "active"}
{"Gene": "PRDM15 (PR/SET domain 15)", "PubChem SID": "SID160747363", "total luciferase, z-score": 0.0586, "Call": "inactive"}
{"Gene": "APOD (apolipoprotein D)", "PubChem SID": "SID160718887", "total luciferase, z-score": 1.09, "Call": "inactive"}
{"Gene": "APOD (apolipoprotein D)", "PubChem SID": "SID160718898", "total luciferase, z-score": -0.62, "Call": "inactive"}
{"Gene": "APOD (apolipoprotein D)", "PubChem SID": "SID160718909", "total luciferase, z-score": 0.648, "Call": "inactive"}
{"Gene": "TET1 (tet methylcytosine dioxygenase 1)", "PubChem SID": "SID160750357", "total luciferase, z-score": -0.397, "Call": "inactive"}
{"Gene": "TET1 (tet methylcytosine dioxygenase 1)", "PubChem SID": "SID160750358", "total luciferase, z-score": 0.312, "Call": "inactive"}
{"Gene": "TET1 (tet methylcytosine dioxygenase 1)", "PubChem SID": "SID160750359", "total luciferase, z-score": 4.1, "Call": "active"}
{"Gene": "ENTPD6 (ectonucleoside triphosphate diphosphohydrolase 6)", "PubChem SID": "SID160739248", "total luciferase, z-score": -0.576, "Call": "inactive"}
{"Gene": "ENTPD6 (ectonucleoside triphosphate diphosphohydrolase 6)", "PubChem SID": "SID160739258", "total luciferase, z-score": 0.233, "Call": "inactive"}
{"Gene": "ENTPD6 (ectonucleoside triphosphate diphosphohydrolase 6)", "PubChem SID": "SID160739269", "total luciferase, z-score": -0.85, "Call": "inactive"}
{"Gene": "RAB30 (RAB30, member RAS oncogene family)", "PubChem SID": "SID160738705", "total luciferase, z-score": -0.857, "Call": "inactive"}
{"Gene": "RAB30 (RAB30, member RAS oncogene family)", "PubChem SID": "SID160738706", "total luciferase, z-score": 0.811, "Call": "inactive"}
{"Gene": "RAB30 (RAB30, member RAS oncogene family)", "PubChem SID": "SID160738707", "total luciferase, z-score": -1.23, "Call": "inactive"}
{"Gene": "RBM7 (RNA binding motif protein 7)", "PubChem SID": "SID160726559", "total luciferase, z-score": 3.42, "Call": "active"}
{"Gene": "RBM7 (RNA binding motif protein 7)", "PubChem SID": "SID160726565", "total luciferase, z-score": 0.43, "Call": "inactive"}
{"Gene": "RBM7 (RNA binding motif protein 7)", "PubChem SID": "SID160726570", "total luciferase, z-score": 0.414, "Call": "inactive"}
{"Gene": "SPACA6 (sperm acrosome associated 6)", "PubChem SID": "SID160773155", "total luciferase, z-score": 2.38, "Call": "inactive"}
{"Gene": "SPACA6 (sperm acrosome associated 6)", "PubChem SID": "SID160773156", "total luciferase, z-score": 0.551, "Call": "inactive"}
{"Gene": "SPACA6 (sperm acrosome associated 6)", "PubChem SID": "SID160773157", "total luciferase, z-score": 2.09, "Call": "inactive"}
{"Gene": "CARNMT1 (carnosine N-methyltransferase 1)", "PubChem SID": "SID160757577", "total luciferase, z-score": 1.05, "Call": "inactive"}
{"Gene": "CARNMT1 (carnosine N-methyltransferase 1)", "PubChem SID": "SID160757578", "total luciferase, z-score": 0.85, "Call": "inactive"}
{"Gene": "CARNMT1 (carnosine N-methyltransferase 1)", "PubChem SID": "SID160757579", "total luciferase, z-score": -1.28, "Call": "inactive"}
{"Gene": "FUT3 (fucosyltransferase 3 (Lewis blood group))", "PubChem SID": "SID160767772", "total luciferase, z-score": -1.41, "Call": "inactive"}
{"Gene": "FUT3 (fucosyltransferase 3 (Lewis blood group))", "PubChem SID": "SID160767782", "total luciferase, z-score": -0.218, "Call": "inactive"}
{"Gene": "FUT3 (fucosyltransferase 3 (Lewis blood group))", "PubChem SID": "SID160767792", "total luciferase, z-score": -1.83, "Call": "inactive"}
